Measurements reported in PubChem BioAssay AID1259308 (NCATS, 2017)
Screen: 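Genes whose loss raises luciferase production in HEK293 cells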 (primary screen). Cell system: human HEK293 embryonic kidney cells stably expressing firefly luciferase (HEK-CMV-Luc2-Hygro). Knock-down reagent: single siRNA against human genes, 0.8 pmol siRNA per well. Time to read-out: 72 h. Read-out: 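Luciferase light (ONE-Glo) measured on one replicate plate set and viability (CellTiter-Glo) on the other, scaled to a negative control siRNA, with robust z-scores and luciferase per cell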. Scale: total luciferase, z-score: higher = more reporter protein produced. Hit rule: 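An siRNA counts as active if its total luciferase robust z-score exceeds 3; genes with two or more such siRNAs out of three were retested with fresh siRNAs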. Calls: active = raised luciferase; inactive = no rise.
Shown is one part, drawn at random, of about 59,000 reagents tested. Over the whole deposit, about 1,510 (2.6%) are marked active. 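Calls use total luciferase alone and ignore viability, so some active siRNAs may act by altering cell number.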 Reagents against one gene are numbered here. Not all columns of the deposit are shown.

total luciferase, z-score, by gene and reagent
CCDC146 (GeneID 57639): #1 -0.38 inactive; #2 0.0608 inactive; #3 -0.372 inactive
RPL21 (GeneID 6144): #1 -2.93 inactive; #2 -2.77 inactive; #3 -2.91 inactive
SLC60A2 (GeneID 91749): #1 -0.742 inactive; #2 -0.0375 inactive; #3 -0.337 inactive
PCDHGA3 (GeneID 56112): #1 -0.085 inactive; #2 -0.999 inactive; #3 0.27 inactive
MPC1 (GeneID 51660): #1 1.21 inactive; #2 3.54 active; #3 1.28 inactive
SDHA (GeneID 6389): #1 -0.534 inactive; #2 -0.288 inactive; #3 0.0424 inactive
CEP43 (GeneID 11116): #1 -0.661 inactive; #2 0.0718 inactive; #3 2.12 inactive
UNC119 (GeneID 9094): #1 1.11 inactive; #2 -2.64 inactive; #3 0.426 inactive

2 entries from above, sorted by “total luciferase, z-score”, highest first.
gene	reagent	total luciferase, z-score	activity call
PCDHGA3 (GeneID 56112)	1	-0.085	inactive
SLC60A2 (GeneID 91749)	3	-0.337	inactive
